# From EP3594336A1, “TREATMENT OF DOWN SYNDROME” (Université de Strasbourg, priority 2018, dated 2020)
# At least one structure is not confirmed: it was looked up by name or label, or the drawing left a doubt.
# How the values were obtained:
# [1] = biological target: T1, CBS enzymatic activity (Homo sapiens, UniProt P35520); experiment: Preliminary data on the mechanism of action of DSF; settings: no method given
# T1 sequence (P35520 1-551): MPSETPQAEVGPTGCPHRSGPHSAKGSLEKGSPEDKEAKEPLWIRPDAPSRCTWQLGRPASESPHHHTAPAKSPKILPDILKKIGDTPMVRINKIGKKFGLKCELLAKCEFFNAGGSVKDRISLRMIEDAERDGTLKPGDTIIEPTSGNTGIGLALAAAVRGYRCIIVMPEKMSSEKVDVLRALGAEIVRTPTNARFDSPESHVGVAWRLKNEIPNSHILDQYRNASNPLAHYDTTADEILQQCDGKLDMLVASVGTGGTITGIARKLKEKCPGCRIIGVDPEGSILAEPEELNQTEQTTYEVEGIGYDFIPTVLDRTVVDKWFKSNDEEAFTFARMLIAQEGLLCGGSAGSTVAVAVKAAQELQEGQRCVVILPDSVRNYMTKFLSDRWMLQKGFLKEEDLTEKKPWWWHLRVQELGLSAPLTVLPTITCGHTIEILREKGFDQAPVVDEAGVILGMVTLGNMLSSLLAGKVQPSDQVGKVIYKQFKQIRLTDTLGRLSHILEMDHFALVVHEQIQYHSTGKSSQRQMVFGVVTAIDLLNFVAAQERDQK
# [2] = tested on: yeast cells overexpressing Cys4; experiment: Drug screening in yeast: suppression of methionine auxotrophy (halo of restored growth around filter); assay type: cell-based, Saccharomyces cerevisiae; settings: compound on filter, solid agar-based methionine-free minimal medium with 2% (w/v) serine, 3 days at 33 °C, halo of restored/enhanced growth
# Method: As an example, for the drug screening, yeast cells transformed with p424-GPD and p426-GPD plasmids containing yeast CBS (CYS4) coding sequence were grown in uracil- and tryptophan-free minimal liquid medium (SD-Ura/Trp) overnight at 29°C. The following day, cells were diluted to OD600∼0.2 in fresh medium and grown for 4 hours to reach exponential phase. Then three hundred and fifty microliters of exponentially growing yeast cells overexpressing CYS4, adjusted to an OD600 of 0.5, were spread homogeneously with sterile glass beads (a mix of ∼1.5 and 3 mm diameter) on a square Petri dish (12 cm × 12cm) containing uracil-, tryptophan- and methionine-free minimal agar-based solid medium (SD-UrarTrp/Met). In addition, to get a degree of methionine auxotrophy sufficient to allow an efficient screening, the screening medium was supplemented with serine (2% (w/v)), which is one of CYS4/CBS substrates. Sterile filters (Thermo Fisher similar to those used for antibiograms) were placed on the agar surface, and 2 µl of individual compound from the various chemical libraries were applied to each filter. […]
# According to the present invention, it was decided to create a yeast model in which the phenotypical consequences of CBS overexpression may be easily and conveniently monitored in order to get a potential in cellulo high throughput drug screening procedure. […]
# [3] = tested on: Tg(CBS) mice; experiment: Novel object recognition (NOR) after DSF treatment, Tg(CBS) mice; assay type: in vivo, mouse; settings: DSF 10mg/kg/day intra-peritoneal for 10 days, NOR on day 11, 1 hour retention, Student paired t-test «No vs Fo» p=0,05 (vehicle treated Tg(CBS) p=0.59)
# [4] = tested on: wt mice; experiment: Novel object recognition (NOR) after DSF treatment, wild type mice; assay type: in vivo, mouse; settings: DSF 10mg/kg/day intra-peritoneal for 10 days, NOR on day 11, 1 hour retention, Student paired t-test «No vs Fo» p=0.11 (vehicle treated wt p=0,006)
structure (smiles),measurement,setting,value
"CCN(CC)C(=S)SSC(=S)N(CC)CC [DSF, Disulfiram]",direct inhibition of CBS enzymatic activity,[1],may not directly inhibit CBS enzymatic activity
same,ability to suppress the methionine auxotrophy induced by Cys4p overexpression,[2],active at sub-toxic concentrations
same,ability to suppress the methionine auxotrophy induced by Cys4p overexpression,[2]; listed as disulfiram,identified
same,novel object recognition (discrimination of new versus familiar object),[3],restored in the novel object recognition paradigm
same,novel object recognition (discrimination of new versus familiar object),[4],no more able to perform the discrimination
